According to US10739331B2, “OMA1 activity assay” (BioVentures, LLC, priority 2017, dated 2020):
For at least one compound, name, drawing or mass did not settle the structure.

Biological target: T1, OMA1 (Rattus norvegicus, UniProt D3ZS74)
T1 construct: Renal cell lysates from normal rat kidney (NRK) epithelial cell line were prepared; endogenous in cells; host or cells: NRK-52E (ATCC CRL-1571), RIPA lysate, 5 µg protein per well
T1 sequence (D3ZS74 123-504): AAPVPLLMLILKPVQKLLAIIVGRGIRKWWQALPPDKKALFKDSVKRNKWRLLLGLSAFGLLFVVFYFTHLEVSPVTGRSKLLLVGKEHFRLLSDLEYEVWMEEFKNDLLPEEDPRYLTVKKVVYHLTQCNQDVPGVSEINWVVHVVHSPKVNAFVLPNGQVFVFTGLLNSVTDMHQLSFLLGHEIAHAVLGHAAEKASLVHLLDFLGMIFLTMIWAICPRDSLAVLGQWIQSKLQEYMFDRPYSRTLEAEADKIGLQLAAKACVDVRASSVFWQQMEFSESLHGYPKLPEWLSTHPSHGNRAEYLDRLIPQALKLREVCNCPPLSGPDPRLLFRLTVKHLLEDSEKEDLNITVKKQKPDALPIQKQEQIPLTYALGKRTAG
Assay: OMA1 activity assay (OPA1 FRET substrate) in NRK cell lysates
Type: biochemical
Details: 0.5-1 μM, vs untreated lysates
Protocol: Normal rat kidney cells (NRK-52E; ATCC No. CRL-1571) were maintained in a humidified incubator with 5% CO2, 95% air at 37° C. in DMEM containing 5% fetal bovine serum. Renal cell lysates from normal rat kidney (NRK) epithelial cell line were prepared by using radioimmunoprecipitation assay (RIPA) buffer (Pierce) with 1 mM PMSF (Sigma), 1.2 mM Na3VO4 (Sigma), 2.5 mM NaF (Sigma), 1 mM DTT (Sigma), 1× of Halt Protease & Phosphatase inhibitor cocktail (Thermo Scientific), and 5 mM EDTA (Thermo Scientific). Protein concentrations were determined by Coomassie Plus Protein Assay Reagent (Pierce).
Our OMA1 activity assay utilizes an 8-mer peptide derived from the cleavage sequence of OPA1, which is reported to be specific of OMA1 which is referred as the OPA1 FRET substrate. […] Fluorescence was recorded (excitation/emission of 320/405 nm) once per minute for 30 min at 37° C. using a fluorescent plate reader (SpectraMax M2e, Molecular Devices equipped with SoftMax Pro v5 software).
For the statistical analysis, the average fluorescence of the OPA1 FRET substrate alone was measured (<150 relative FLS units) and that value was subtracted from the sample values. The values were reported as a difference of TPEN inhibition [(sample X)−(sample X+TPEN)] where the slopes between 0-30 min were calculated (by linear regression) and each treatment were compared to appropriate controls. […]

In the case of `CNC(=O)[C@H](Cc1ccccc1)NC(=O)[C@H](CC(C)C)[C@H](CSc1cccs1)C(=O)NO` [batimastat], the “effect on OMA1 activity (slope, FLS/min)” value is reported as “neither the broad-spectrum MMP inhibitor, batimastat (0.5-1 μM), or the meprin A inhibitor, actinonin (0.5-1 μM), altered OMA1 activity” and the “effect on OMA1 activity (slope, FLS/min)” value (listed as Batimastat) is reported as “Only TPEN reduced OMA1 activity”.
